The list shows a part of the results. Most values lie at the level of the controls, where differences are scatter.
System: ppGalNAc-T3 sensor
Test: T3 sensor activation Q score (MG/GFP ratio z-score vs DMSO controls) (SD units); higher = more sensor activation (inhibition of ppGalNAc-T3 glycosylation)
Conditions: HEK293 sensor cells; 10 µM; 6 h
Protocol: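 Cells were treated with compound at 10 uM for 6 h, then MG/GFP ratio was read by flow cytometry (10,000 cells per well, duplicate wells). Q = (R - R_neg)/SD_neg relative to DMSO vehicle controls; the signal rises when the glycosyltransferase is inhibited.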

Compound	T3 sensor activation Q score
CCOc1cccc(N2C(=O)CC(N3CCC(C(N)=O)CC3)C2=O)c1 (stereo not given)	0.485
CN(CCC(N)=O)Cc1ccccc1	-0.24
O=Cc1ccc(S(=O)(=O)c2ccc(Cl)cc2)cc1	0.07
COc1ccccc1N1CCN(Cc2ccc(C(=O)O)cc2)CC1	-0.13
O=C(COc1ccc(Cl)cc1Cl)Nc1cccc(Cl)c1Cl	-0.175
COc1ccc(CN2CCN(C/C=C/c3ccccc3)CC2)c(O)c1	0.345
C/C(=C\c1ccccc1)CN1CC(C)OC(C)C1 (stereo not given)	0.215
O=C(Nc1ccc(-c2ccc([N+](=O)[O-])cc2)cc1)c1ccco1	0.755
Cc1ccc(NC2=C([N+](=O)[O-])CS(=O)(=O)C2)cc1	-0.01
Cc1ccc(S(=O)(=O)c2ccccc2)cc1S(N)(=O)=O	-0.58
Fc1ccc(CN2CCc3ccccc3C2)c(F)c1	0.55
Cc1ccc(NC(=O)c2cc(N3C(=O)CCC3=O)ccc2N2CCOCC2)cc1Cl	0.18
Cc1ccc2oc(-c3cccc(NC(=O)c4ccccc4I)c3)nc2c1	-0.045
CCN1CCN(C(=O)CCCOc2ccc(Cl)cc2Cl)CC1	1.13
CC(C)(C)OC(=O)N1CCCC1C(=O)O (stereo not given)	-0.39
OCCSc1ccc(-c2ccc(SCCO)cc2)cc1	0.95
CCc1ccccc1NC(=O)c1ccc(-c2ccccc2)cc1	-0.025
CCN(CC)C(=O)C1CCCN(Cc2cccc(OC)c2OC)C1 (stereo not given)	0.33
O=C(COc1ccccc1O)NO	-0.005
CC(C)CNC(=O)c1ccc(Br)o1	-0.09

Some values from the list:
Entry of `O=Cc1ccc(S(=O)(=O)c2ccc(Cl)cc2)cc1` under T3 sensor activation Q score: 0.07
Entry of `O=C(Nc1ccc(-c2ccc([N+](=O)[O-])cc2)cc1)c1ccco1` under T3 sensor activation Q score: 0.755

Following part.

Compound	T3 sensor activation Q score
O=C(NCCc1ccccc1)c1ccco1	-1.22
OCCOc1ccccc1OCCO	0.34
CN1CCCN(Cc2ccc(F)cc2)CC1	0.115
COc1ccc(-c2noc(-c3cccc(OC)c3)n2)cc1	0.765
O=[N+]([O-])C1=C(Nc2ccccc2)CS(=O)(=O)C1	0.24
NC(=O)c1ccccc1NC(=O)c1ccc(-c2ccccc2)cc1	0.95
c1ccc(Oc2cccc(CN3CCSCC3)c2)cc1	-0.075
Cc1cc(C)n(C2CC(=O)N(c3cccc(Cl)c3)C2=O)n1 (stereo not given)	0.475
NC(=O)C(=O)Nc1nc(-c2ccccc2)cs1	-1.34
CCN(C(=O)c1ccco1)c1ccccc1	-0.14
O=C([C@@H]1C[C@@H]1c1ccccc1)N1CCOCC1	1.4
Cc1ccc(NC(=O)[C@@H]2C3C=CC(C3)[C@@H]2C(=O)O)c(C)c1 (stereo not given in full)	-0.045
Cc1cccc(NC(=O)Cc2ccc(-c3ccccc3)cc2)c1C	0.79
Cc1ccc(Nc2cc(-n3cccn3)ncn2)cc1	-0.265
Cc1ccc2c(N)c(C(=O)c3ccc(Cl)cc3)sc2n1	0.64
O=[N+]([O-])c1ccc(CN2CCN(c3ncccn3)CC2)cc1	0.53
COc1ccc(NCc2cccnc2)cc1	0.445
CC1(C)CC(=O)C=C(Nc2ccccc2N)C1	0.65
COc1cc2c(cc1OC)CN(Cc1c(F)cccc1Cl)CC2	0.5
Cc1nn(C)c(C)c1NC(=O)c1ccnn1C	0.43

Source: the supplement of paper PMC5407854, “Inhibitor of ppGalNAc-T3-mediated O-glycosylation blocks cancer cell invasiveness and lowers FGF23 levels” (eLife, 2017)
